The other results are listed elsewhere or left out.
Assays:
Assay in all cases: glycan array binding signal (z-score within array); higher = stronger binding
Conditions in all cases: glycan notation: IUPAC condensed, linker removed
Gal3S4S(b1-4)GlcNAc = biological target: Gal3S4S(b1-4)GlcNAc
Outline: (§1)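 From the Consortium for Functional Glycomics database, 3228 arrays were curated, keeping only those whose protein sequence was available. Binding is given as a within-array Z-score averaged across arrays sharing a protein sequence and across linkers. Negative Z-scores can be read as non-binding.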

Gal3S6S(b1-4)GlcNAc = biological target: Gal3S6S(b1-4)GlcNAc
Outline: as §1

Gal3S6S(b1-4)GlcNAc6S = biological target: Gal3S6S(b1-4)GlcNAc6S
Outline: as §1

Gal4S(b1-4)GlcNAc = biological target: Gal4S(b1-4)GlcNAc
Outline: as §1

Gal4S6S(b1-4)GlcNAc = biological target: Gal4S6S(b1-4)GlcNAc
Outline: as §1

Gal6P(b1-4)GlcNAc = biological target: Gal6P(b1-4)GlcNAc
Outline: as §1

Gal6S(b1-3)GlcNAc = biological target: Gal6S(b1-3)GlcNAc
Outline: as §1

Gal6S(b1-3)GlcNAc6S = biological target: Gal6S(b1-3)GlcNAc6S
Outline: as §1

Gal6S(b1-4)Glc = biological target: Gal6S(b1-4)Glc
Outline: as §1

Gal6S(b1-4)Glc6S = biological target: Gal6S(b1-4)Glc6S
Outline: as §1

Gal6S(b1-4)GlcNAc = biological target: Gal6S(b1-4)GlcNAc
Outline: as §1

Gal6S(b1-4)GlcNAc6S = biological target: Gal6S(b1-4)GlcNAc6S
Outline: as §1

GalNAc(a1-3)Gal = biological target: GalNAc(a1-3)Gal
Outline: as §1

GalNAc(a1-3)GalNAc = biological target: GalNAc(a1-3)GalNAc
Outline: as §1

[1] = biological target: GalNAc(a1-3)GalNAc(b1-3)Gal(a1-4)Gal(b1-4)Glc
Outline: as §1

[2] = biological target: GalNAc(a1-3)GalNAc(b1-3)Gal(a1-4)Gal(b1-4)GlcNAc
Outline: as §1

GalNAc(b1-3)Gal = biological target: GalNAc(b1-3)Gal
Outline: as §1

[3] = biological target: GalNAc(b1-3)Gal(a1-4)Gal(b1-4)GlcNAc
Outline: as §1

[4] = biological target: GalNAc(b1-3)Gal(a1-4)Gal(b1-4)GlcNAc(b1-3)Gal(b1-4)Glc
Outline: as §1

[5] = biological target: GalNAc(b1-3)Gal(a1-6)Gal(b1-4)Glc
Outline: as §1

GalNAc(b1-3)GalNAc = biological target: GalNAc(b1-3)GalNAc
Outline: as §1

GalNAc(b1-3)GlcNAc = biological target: GalNAc(b1-3)GlcNAc
Outline: as §1

GalNAc(b1-4)Gal(b1-4)Glc = biological target: GalNAc(b1-4)Gal(b1-4)Glc
Outline: as §1

GalNAc(b1-4)GlcNAc = biological target: GalNAc(b1-4)GlcNAc
Outline: as §1

[6] = biological target: GalNAc(b1-4)GlcNAc(b1-2)Man
Outline: as §1

[7] = biological target: GalNAc(b1-4)GlcNAc(b1-2)Man(a1-3)[GalNAc(b1-4)GlcNAc(b1-2)Man(a1-6)]Man(b1-4)GlcNAc(b1-4)GlcNAc
Outline: as §1

[8] = biological target: GalNAc(b1-4)GlcNAc(b1-3)GalNAc(b1-4)GlcNAc
Outline: as §1

GalNAc(b1-4)GlcNAc6S = biological target: GalNAc(b1-4)GlcNAc6S
Outline: as §1

GalNAc(b1-6)GalNAc = biological target: GalNAc(b1-6)GalNAc
Outline: as §1

GalNAc3S(b1-4)GlcNAc = biological target: GalNAc3S(b1-4)GlcNAc
Outline: as §1

GalNAc3S(b1-4)GlcNAc3S = biological target: GalNAc3S(b1-4)GlcNAc3S
Outline: as §1

[9] = biological target: GalNAc3S(b1-4)[Fuc(a1-3)]GlcNAc
Outline: as §1

GalNAc4S6S(b1-4)GlcNAc = biological target: GalNAc4S6S(b1-4)GlcNAc
Outline: as §1

GalNAc6S(b1-4)GlcNAc = biological target: GalNAc6S(b1-4)GlcNAc
Outline: as §1

Glc(a1-4)Glc = biological target: Glc(a1-4)Glc
Outline: as §1

[10] = biological target: Glc(a1-4)Glc(a1-4)Glc(a1-4)Glc
Outline: as §1

Glc(a1-6)Glc(a1-6)Glc = biological target: Glc(a1-6)Glc(a1-6)Glc
Outline: as §1

[11] = biological target: Glc(a1-6)Glc(a1-6)Glc(a1-6)Glc
Outline: as §1

B1: RsaA-N-term (Caulobacter crescentus), P35828 (protein)
chain: MAYTTAQLVTAYTNANLGKAPDAATTLTLDAYATQTQTGGLSDAAALTNTLKLVNSTTAVAIQTYQFFTGVAPSAAGLDFLVDSTTNTNDLNDAYYSKFAQENRFINFSINLATGAGAGATAFAAAYTGVSYAQTVATAYDKIIGNAVATAAGVDVAAAVAFLSRQANIDYLTAFVRANTPFTAAADIDLAVKAALIGTILNAATVSGIGGYATATAAMINDLSDGALSTDNAAGVNLFTAYPSSGVSGSTLSLTTGTDTLTGTANNDTFVAGEVAGDGSGWSHPQFEKGG
glycan array binding signal (z-score) (Gal3S4S(b1-4)GlcNAc): 0.355
glycan array binding signal (z-score) (Gal3S6S(b1-4)GlcNAc): 1.45
glycan array binding signal (z-score) (Gal3S6S(b1-4)GlcNAc6S): -0.759
glycan array binding signal (z-score) (Gal4S(b1-4)GlcNAc): -0.165
glycan array binding signal (z-score) (Gal4S6S(b1-4)GlcNAc): -0.176
glycan array binding signal (z-score) (Gal6P(b1-4)GlcNAc): 0.149
glycan array binding signal (z-score) (Gal6S(b1-3)GlcNAc): 1.4
glycan array binding signal (z-score) (Gal6S(b1-3)GlcNAc6S): 3.01
glycan array binding signal (z-score) (Gal6S(b1-4)Glc): -0.512
glycan array binding signal (z-score) (Gal6S(b1-4)Glc6S): -0.895
glycan array binding signal (z-score) (Gal6S(b1-4)GlcNAc): -0.724
glycan array binding signal (z-score) (Gal6S(b1-4)GlcNAc6S): 0.014
glycan array binding signal (z-score) (GalNAc(a1-3)Gal): -0.212
glycan array binding signal (z-score) (GalNAc(a1-3)GalNAc): 0.039
glycan array binding signal (z-score) [1]: 0.787
glycan array binding signal (z-score) [2]: 0.104
glycan array binding signal (z-score) (GalNAc(b1-3)Gal): -0.084
glycan array binding signal (z-score) [3]: -1.24
glycan array binding signal (z-score) [4]: 2.08
glycan array binding signal (z-score) [5]: -0.027
glycan array binding signal (z-score) (GalNAc(b1-3)GalNAc): 0.812
glycan array binding signal (z-score) (GalNAc(b1-3)GlcNAc): 0.169
glycan array binding signal (z-score) (GalNAc(b1-4)Gal(b1-4)Glc): 0.597
glycan array binding signal (z-score) (GalNAc(b1-4)GlcNAc): 0.502
glycan array binding signal (z-score) [6]: 0.558
glycan array binding signal (z-score) [7]: -0.594
glycan array binding signal (z-score) [8]: -0.44
glycan array binding signal (z-score) (GalNAc(b1-4)GlcNAc6S): 0.38
glycan array binding signal (z-score) (GalNAc(b1-6)GalNAc): -0.64
glycan array binding signal (z-score) (GalNAc3S(b1-4)GlcNAc): -0.554
glycan array binding signal (z-score) (GalNAc3S(b1-4)GlcNAc3S): 0.081
glycan array binding signal (z-score) [9]: -0.773
glycan array binding signal (z-score) (GalNAc4S6S(b1-4)GlcNAc): -0.121
glycan array binding signal (z-score) (GalNAc6S(b1-4)GlcNAc): 0.854
glycan array binding signal (z-score) (Glc(a1-4)Glc): -0.053
glycan array binding signal (z-score) [10]: -1.59
glycan array binding signal (z-score) (Glc(a1-6)Glc(a1-6)Glc): 0.894
glycan array binding signal (z-score) [11]: -1.03

From the supplement of paper PMC8728848
